The other results are listed elsewhere or left out. Residues, ends and D or L forms follow the SMILES beside them. *: point of attachment. Cbz = O=C(OCc1ccccc1)*
How the values were obtained:
Test in all cases: log2 fold change, soluble protein after heating vs DMSO (PISA); higher = thermal stabilisation; K562 cells, 10 uM, 30 min; active = over 0.2 and 3.5 SD of the protein, either way, in both replicates (recomputed)
erlotinib = compound: C#Cc1cccc(Nc2ncnc3cc(OCCOC)c(OCCOC)cc23)c1 [erlotinib]
Outline: (§1)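 Quantification of soluble protein used TMTpro 16plex LC-MS/MS, with channel sums equalised. Samples were the supernatant after 21,000xg for 90 min of pooled aliquots from K562 cells (2×10^6 cells/mL) treated with 10 μM compound for 30 min, heated for 3 min over 48°C-58°C, and extracted in PBS with 0.5% NP-40 at 4°C. Values, from duplicates, describe thermal stability against control samples on a log2 fold-change scale.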

The chains behind the UniProt entries cited, without tags or fusion partners. Where a name states a change or a piece, a line headed by the entry shows the natural chain unless it says otherwise.
UniProt Q9NXR1: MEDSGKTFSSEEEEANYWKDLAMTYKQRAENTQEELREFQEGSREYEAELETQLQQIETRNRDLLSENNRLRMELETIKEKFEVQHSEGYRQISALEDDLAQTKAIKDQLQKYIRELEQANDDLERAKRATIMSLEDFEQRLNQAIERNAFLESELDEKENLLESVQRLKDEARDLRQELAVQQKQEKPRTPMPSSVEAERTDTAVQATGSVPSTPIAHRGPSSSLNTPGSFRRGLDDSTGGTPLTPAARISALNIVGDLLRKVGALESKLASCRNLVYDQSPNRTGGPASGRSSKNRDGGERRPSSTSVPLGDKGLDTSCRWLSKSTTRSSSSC
UniProt Q9UBB6: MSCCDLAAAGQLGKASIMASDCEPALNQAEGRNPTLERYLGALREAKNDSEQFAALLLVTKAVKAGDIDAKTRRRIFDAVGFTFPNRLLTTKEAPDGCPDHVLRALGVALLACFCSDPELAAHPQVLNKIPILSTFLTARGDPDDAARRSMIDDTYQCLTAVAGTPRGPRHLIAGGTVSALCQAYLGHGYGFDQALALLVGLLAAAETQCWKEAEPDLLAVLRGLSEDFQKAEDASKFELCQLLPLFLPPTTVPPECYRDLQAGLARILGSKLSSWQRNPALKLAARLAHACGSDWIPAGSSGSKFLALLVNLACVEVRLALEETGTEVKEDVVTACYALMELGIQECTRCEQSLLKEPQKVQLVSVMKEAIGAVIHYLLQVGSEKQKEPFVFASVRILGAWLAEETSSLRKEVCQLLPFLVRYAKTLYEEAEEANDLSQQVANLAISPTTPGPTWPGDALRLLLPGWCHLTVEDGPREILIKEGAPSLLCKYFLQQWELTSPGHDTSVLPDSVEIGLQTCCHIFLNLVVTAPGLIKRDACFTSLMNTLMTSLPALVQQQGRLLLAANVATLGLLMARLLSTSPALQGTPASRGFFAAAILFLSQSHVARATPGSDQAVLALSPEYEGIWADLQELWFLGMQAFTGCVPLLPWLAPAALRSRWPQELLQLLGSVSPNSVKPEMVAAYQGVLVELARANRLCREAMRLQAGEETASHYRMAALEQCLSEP
UniProt P54802: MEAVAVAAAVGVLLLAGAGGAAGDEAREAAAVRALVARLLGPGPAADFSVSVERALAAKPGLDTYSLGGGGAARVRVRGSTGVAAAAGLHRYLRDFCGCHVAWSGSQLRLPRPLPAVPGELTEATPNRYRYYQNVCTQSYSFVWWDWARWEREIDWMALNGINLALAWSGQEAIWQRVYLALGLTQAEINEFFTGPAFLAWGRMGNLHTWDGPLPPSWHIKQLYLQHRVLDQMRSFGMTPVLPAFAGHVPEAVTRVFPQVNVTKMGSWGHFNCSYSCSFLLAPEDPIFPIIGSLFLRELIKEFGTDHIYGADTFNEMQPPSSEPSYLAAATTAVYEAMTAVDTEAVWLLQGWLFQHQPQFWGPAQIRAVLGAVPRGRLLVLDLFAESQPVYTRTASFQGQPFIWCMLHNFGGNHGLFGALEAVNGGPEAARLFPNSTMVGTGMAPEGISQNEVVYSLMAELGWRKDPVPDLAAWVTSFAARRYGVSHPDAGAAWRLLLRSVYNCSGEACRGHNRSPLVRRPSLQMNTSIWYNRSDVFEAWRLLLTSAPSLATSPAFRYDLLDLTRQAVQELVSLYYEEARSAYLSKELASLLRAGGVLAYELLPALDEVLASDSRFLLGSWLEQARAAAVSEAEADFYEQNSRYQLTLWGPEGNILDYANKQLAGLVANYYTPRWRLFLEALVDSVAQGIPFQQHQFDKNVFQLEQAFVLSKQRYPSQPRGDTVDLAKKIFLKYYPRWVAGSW
UniProt P62166, whole entry, looked up: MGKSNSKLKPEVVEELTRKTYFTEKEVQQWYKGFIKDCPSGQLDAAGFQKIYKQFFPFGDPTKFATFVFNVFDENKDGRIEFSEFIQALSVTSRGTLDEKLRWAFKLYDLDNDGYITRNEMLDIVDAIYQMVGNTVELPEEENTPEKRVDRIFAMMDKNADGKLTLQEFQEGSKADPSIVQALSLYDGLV
UniProt P49821, whole entry, looked up: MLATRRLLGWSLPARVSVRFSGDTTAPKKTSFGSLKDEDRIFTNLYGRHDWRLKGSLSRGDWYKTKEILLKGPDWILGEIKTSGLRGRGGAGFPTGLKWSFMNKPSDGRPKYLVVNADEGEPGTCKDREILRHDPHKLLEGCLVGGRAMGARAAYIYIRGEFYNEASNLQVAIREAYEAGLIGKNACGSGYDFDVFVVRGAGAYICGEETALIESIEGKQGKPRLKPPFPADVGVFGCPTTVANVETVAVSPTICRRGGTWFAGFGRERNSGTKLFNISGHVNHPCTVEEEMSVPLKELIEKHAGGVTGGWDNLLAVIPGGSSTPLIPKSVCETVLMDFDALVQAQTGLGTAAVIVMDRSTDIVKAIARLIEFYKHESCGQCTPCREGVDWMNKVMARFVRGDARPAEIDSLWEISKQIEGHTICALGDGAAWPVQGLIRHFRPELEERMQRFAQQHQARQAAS
UniProt Q6PIU2: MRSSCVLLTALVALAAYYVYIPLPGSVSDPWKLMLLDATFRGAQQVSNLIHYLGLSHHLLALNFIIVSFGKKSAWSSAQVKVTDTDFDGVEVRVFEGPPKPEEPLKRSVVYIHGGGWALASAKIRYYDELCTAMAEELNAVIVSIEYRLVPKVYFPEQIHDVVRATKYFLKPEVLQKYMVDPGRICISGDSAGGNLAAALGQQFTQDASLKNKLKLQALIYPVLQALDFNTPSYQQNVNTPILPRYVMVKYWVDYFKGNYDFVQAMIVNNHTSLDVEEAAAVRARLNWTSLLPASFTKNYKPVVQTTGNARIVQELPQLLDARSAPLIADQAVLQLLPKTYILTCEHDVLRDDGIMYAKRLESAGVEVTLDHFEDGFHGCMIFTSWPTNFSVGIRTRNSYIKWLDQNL
UniProt Q96NT1: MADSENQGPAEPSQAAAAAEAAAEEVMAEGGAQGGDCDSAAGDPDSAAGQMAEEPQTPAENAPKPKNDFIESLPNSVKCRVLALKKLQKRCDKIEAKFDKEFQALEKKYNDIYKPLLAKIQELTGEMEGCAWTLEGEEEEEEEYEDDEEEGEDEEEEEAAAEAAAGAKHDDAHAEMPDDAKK
UniProt Q9NVZ3: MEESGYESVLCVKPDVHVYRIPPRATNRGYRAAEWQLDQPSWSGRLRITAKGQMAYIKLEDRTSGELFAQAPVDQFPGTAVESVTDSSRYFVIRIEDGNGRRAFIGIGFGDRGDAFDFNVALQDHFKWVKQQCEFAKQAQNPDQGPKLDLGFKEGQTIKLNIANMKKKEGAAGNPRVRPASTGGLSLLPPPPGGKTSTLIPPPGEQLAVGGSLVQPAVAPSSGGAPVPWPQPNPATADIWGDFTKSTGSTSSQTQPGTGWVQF
UniProt P19404, whole entry, looked up: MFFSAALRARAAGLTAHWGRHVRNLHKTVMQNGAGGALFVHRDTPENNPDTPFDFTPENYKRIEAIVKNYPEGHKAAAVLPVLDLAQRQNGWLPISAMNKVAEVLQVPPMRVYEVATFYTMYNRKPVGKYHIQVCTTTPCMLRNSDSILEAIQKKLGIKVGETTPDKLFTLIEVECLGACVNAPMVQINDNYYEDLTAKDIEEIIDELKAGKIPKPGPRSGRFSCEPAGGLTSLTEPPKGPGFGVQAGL
UniProt Q6P582, whole entry, looked up: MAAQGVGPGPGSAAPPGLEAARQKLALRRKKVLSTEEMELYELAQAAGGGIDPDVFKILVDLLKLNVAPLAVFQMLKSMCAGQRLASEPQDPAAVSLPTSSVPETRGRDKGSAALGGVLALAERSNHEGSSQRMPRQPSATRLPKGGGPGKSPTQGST
UniProt O75380, whole entry, looked up: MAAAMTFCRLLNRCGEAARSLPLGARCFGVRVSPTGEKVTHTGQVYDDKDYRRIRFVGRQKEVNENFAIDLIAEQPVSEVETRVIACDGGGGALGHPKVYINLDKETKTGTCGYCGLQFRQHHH
UniProt Q9H0A0: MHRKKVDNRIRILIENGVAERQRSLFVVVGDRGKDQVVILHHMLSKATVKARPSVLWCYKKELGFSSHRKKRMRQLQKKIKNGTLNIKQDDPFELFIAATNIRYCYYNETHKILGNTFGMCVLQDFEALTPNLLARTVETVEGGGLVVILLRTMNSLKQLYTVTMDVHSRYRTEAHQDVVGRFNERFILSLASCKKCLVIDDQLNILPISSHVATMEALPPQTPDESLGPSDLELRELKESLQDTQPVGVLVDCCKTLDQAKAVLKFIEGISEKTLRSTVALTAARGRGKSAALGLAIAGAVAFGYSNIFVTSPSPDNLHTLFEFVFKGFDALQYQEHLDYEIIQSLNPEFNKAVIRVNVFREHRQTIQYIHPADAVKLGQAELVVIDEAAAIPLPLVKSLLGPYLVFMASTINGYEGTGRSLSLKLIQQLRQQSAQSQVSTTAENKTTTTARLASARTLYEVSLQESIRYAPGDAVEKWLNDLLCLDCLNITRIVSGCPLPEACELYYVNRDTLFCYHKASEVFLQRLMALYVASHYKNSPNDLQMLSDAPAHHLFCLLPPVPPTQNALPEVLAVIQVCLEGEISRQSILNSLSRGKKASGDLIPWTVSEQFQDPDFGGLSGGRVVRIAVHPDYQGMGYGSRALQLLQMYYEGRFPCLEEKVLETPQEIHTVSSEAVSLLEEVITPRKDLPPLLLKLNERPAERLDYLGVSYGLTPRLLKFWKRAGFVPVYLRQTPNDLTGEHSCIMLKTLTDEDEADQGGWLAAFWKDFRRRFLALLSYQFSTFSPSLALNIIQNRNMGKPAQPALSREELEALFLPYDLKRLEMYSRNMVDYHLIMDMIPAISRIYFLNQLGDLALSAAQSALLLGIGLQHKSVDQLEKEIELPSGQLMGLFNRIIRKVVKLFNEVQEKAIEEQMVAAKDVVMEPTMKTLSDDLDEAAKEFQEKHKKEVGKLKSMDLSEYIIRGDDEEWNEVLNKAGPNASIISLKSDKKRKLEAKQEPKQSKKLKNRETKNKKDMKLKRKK
UniProt Q6XQN6: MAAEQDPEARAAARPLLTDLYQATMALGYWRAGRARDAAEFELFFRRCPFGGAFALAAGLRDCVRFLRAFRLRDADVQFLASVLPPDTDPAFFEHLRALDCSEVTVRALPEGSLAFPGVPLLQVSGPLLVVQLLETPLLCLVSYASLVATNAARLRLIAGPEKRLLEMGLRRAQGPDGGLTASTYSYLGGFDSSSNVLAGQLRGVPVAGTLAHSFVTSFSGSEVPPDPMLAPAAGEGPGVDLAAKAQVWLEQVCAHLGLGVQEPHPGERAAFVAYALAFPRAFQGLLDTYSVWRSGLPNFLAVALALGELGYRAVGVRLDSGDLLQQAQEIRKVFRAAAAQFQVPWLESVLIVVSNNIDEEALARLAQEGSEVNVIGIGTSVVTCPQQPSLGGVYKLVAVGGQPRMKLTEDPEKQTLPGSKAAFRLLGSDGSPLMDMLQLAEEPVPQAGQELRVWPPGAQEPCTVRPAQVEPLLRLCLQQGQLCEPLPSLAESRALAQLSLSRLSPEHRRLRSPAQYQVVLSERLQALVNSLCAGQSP
UniProt Q13564: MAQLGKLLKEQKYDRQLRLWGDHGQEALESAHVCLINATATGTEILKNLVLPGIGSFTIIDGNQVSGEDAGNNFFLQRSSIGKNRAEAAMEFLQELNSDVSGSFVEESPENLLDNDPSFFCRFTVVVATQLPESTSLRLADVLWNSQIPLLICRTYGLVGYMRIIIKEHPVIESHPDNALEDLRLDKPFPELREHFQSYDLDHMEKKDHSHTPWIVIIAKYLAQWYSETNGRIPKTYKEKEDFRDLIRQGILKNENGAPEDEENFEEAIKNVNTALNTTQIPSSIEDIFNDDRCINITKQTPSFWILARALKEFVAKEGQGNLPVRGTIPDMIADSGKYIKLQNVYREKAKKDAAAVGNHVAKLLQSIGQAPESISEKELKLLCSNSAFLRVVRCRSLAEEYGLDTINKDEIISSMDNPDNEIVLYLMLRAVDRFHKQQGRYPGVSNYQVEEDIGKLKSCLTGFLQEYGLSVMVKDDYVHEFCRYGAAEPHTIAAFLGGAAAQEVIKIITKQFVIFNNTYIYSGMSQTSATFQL
UniProt Q9Y5N5: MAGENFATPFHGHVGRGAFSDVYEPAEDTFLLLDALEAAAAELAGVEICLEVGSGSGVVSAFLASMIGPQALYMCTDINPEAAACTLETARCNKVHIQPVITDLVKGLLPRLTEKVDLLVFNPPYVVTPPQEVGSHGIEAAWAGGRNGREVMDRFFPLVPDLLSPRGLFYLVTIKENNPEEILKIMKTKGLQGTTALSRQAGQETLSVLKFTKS

[1] = compound: C/C(=N\NC(=O)C1=CC(=CC=C1)S(=O)(=O)N2CCOCC2)/C3=C(C=CC(=C3)Cl)O
Outline: as §1

[2] = compound: C1=CC(=C(C=C1Cl)C2=NC3=NC=CN=C3C(=N2)NC4=CC=NC=C4)F
Outline: as §1

[3] = compound: C1=CC(=CC=C1C2=NC3=C(N2)C=C(C=C3)C(=O)N)OC4=CC=C(C=C4)Cl
Outline: as §1

[4] = compound: C1=CC2=C(C=CC(=C2)/C=C\3/C(=O)NC(=NCC4=CC=CS4)S3)N=C1
Outline: as §1

[5] = compound: C1=CC2=NC=CN=C2C=C1/C=C/3\C(=O)NC(=O)S3
Outline: as §1

[6] = compound: C1=CC=C(C=C1)C2=NC(=C(N2)C3=CC=NC=C3)C4=CC(=C(C=C4)Cl)O
Outline: as §1

[7] = compound: C1=CC=C2C(=C1)C3=NNC4=CC=CC(=C43)C2=O
Outline: as §1

[8] = compound: C1CCN(C1)C(=O)NC2=CC=CC(=C2)NC3=NC=C(C(=N3)NCCC4=CN=CN4)Br
Outline: as §1

[9] = compound: C1CN(CCC1(CC2=CC=C(C=C2)Cl)N)C3=NC=NC4=C3C=CN4
Outline: as §1

IRAK-1-4 Inhibitor I = compound: C1COCCN1CCN2C3=CC=CC=C3N=C2NC(=O)C4=CC(=CC=C4)[N+](=O)[O-] [IRAK-1-4 Inhibitor I]
Outline: as §1

ibrutinib = compound: C=CC(=O)N1CCC[C@@H](n2nc(-c3ccc(Oc4ccccc4)cc3)c3c(N)ncnc32)C1 [ibrutinib]
Outline: as §1

[10] = compound: CC(=O)c1cnc2ccc(-c3cc(Cl)c(O)c(Cl)c3)nc2c1N[C@H]1CC[C@H](CN(C)C)CC1
Outline: as §1

ralimetinib = compound: CC(C)(C)Cn1c(N)nc2ccc(-c3[nH]c(C(C)(C)C)nc3-c3ccc(F)cc3)nc21 [ralimetinib]
Outline: as §1

[11] = compound: CC(C)(O)CC(=O)NCCn1ccc2ncnc(Nc3ccc(Oc4cccc(C(F)(F)F)c4)c(Cl)c3)c21
Outline: as §1

[12] = compound: CC(C)C1=C2N=C(C=C(N2N=C1)NCC3=CC=CC=C3)NCCCCCCN
Outline: as §1

[13] = compound: CC(C)C[C@@H](C=O)NC(=O)[C@H](CC(C)C)NC(=O)[C@H](CC(C)C)NC(=O)OCc1ccccc1
Outline: as §1

pinometostat = compound: CC(C)N(C[C@H]1O[C@@H](n2cnc3c(N)ncnc32)[C@H](O)[C@@H]1O)[C@H]1C[C@@H](CCc2nc3cc(C(C)(C)C)ccc3[nH]2)C1 [pinometostat]
Outline: as §1

[14] = compound: CC1=C(C(CC(=O)N1)C2=CC=C(C=C2)C(F)(F)F)C(=O)NC3=C(C=C4C(=C3)C=NN4)F
Outline: as §1

[15] = compound: CC1=C(C2=C(C=C1)C(=O)C3=CC=CC=C3N2CCCN)C
Outline: as §1

Measured: log2 fold change

NDE1 isoform 1 (UniProt Q9NXR1)
inactive: erlotinib -0.01 | [1] -0.01 | [2] 0.005 | [3] 0.001 | [4] 0.04 | [5] 0.076 | [6] -0.016 | [7] 0.023 | [8] -0.004 | [9] 0.012 | IRAK-1-4 Inhibitor I 0.025 | ibrutinib -0.003 | [10] -0.031 | ralimetinib -0.031 | [11] -0.01 | [12] 0.003 | [13] 0.072 | pinometostat -0.012 | [14] 0.04 | [15] 0.007

NCDN isoform 3 (UniProt Q9UBB6)
inactive: erlotinib 0.061 | [1] 0.024 | [2] -0.01 | [3] -0.054 | [4] 0.043 | [5] 0.038 | [6] 0.03 | [7] 0.039 | [8] -0.037 | [9] -0.03 | IRAK-1-4 Inhibitor I 0.023 | ibrutinib -0.033 | [10] -0.033 | ralimetinib 0.015 | [11] -0.202 | [12] -0.099 | [13] 0 | pinometostat 0.094 | [14] 0.024 | [15] 0.069

NAGLU (UniProt P54802)
inactive: erlotinib -0.027 | [1] 0.062 | [2] 0.027 | [3] 0.008 | [4] -0.103 | [5] 0.009 | [6] -0.004 | [7] 0.129 | [8] -0.045 | [9] 0.013 | IRAK-1-4 Inhibitor I 0.066 | ibrutinib 0.055 | [10] 0.121 | ralimetinib 0.001 | [11] 0.114 | [12] -0.012 | [13] -0.054 | pinometostat 0.046 | [14] -0.005 | [15] 0.013

NCS1 (UniProt P62166)
inactive: erlotinib 0.009 | [1] 0.043 | [2] 0.008 | [3] 0.058 | [4] -0.077 | [5] 0.018 | [6] 0.033 | [7] 0.031 | [8] 0.013 | [9] 0.073 | IRAK-1-4 Inhibitor I 0.037 | ibrutinib 0.032 | [10] -0.04 | ralimetinib -0.033 | [11] -0.109 | [12] -0.006 | [13] -0.004 | pinometostat -0.031 | [14] 0.008 | [15] 0.008

NDUFV1 (UniProt P49821)
inactive: erlotinib -0.037 | [1] -0.026 | [2] 0.003 | [3] -0.009 | [4] 0.049 | [5] 0.05 | [6] 0.027 | [7] 0.017 | [8] 0.007 | [9] 0.047 | IRAK-1-4 Inhibitor I 0.025 | ibrutinib 0.005 | [10] 0.001 | ralimetinib -0.042 | [11] -0.124 | [12] 0.001 | [13] -0.001 | pinometostat 0.011 | [14] 0.058 | [15] 0.033

NCEH1 isoform 2 (UniProt Q6PIU2)
inactive: erlotinib -0.032 | [1] -0.005 | [2] 0.036 | [3] 0.012 | [4] 0.025 | [5] 0.074 | [6] -0.014 | [7] 0 | [8] 0.033 | [9] 0.083 | IRAK-1-4 Inhibitor I -0.011 | ibrutinib 0.026 | [10] 0.003 | ralimetinib -0.031 | [11] 0.001 | [12] 0.004 | [13] -0.027 | pinometostat -0.005 | [14] 0.023 | [15] -0.003

NAP1L5 (UniProt Q96NT1)
inactive: erlotinib -0.054 | [1] -0.007 | [2] 0.004 | [3] 0.04 | [4] -0.05 | [5] 0.068 | [6] -0.062 | [7] -0.048 | [8] -0.015 | [9] 0.084 | IRAK-1-4 Inhibitor I 0.04 | ibrutinib -0.116 | [10] 0.053 | ralimetinib -0.06 | [11] -0.023 | [12] 0.078 | [13] 0.003 | pinometostat -0.115 | [14] 0.02 | [15] -0.16

NECAP2 (UniProt Q9NVZ3)
inactive: erlotinib 0.018 | [1] 0.111 | [2] 0.098 | [3] -0.006 | [4] 0.048 | [5] 0.008 | [6] 0.062 | [7] -0.061 | [8] -0.001 | [9] 0.038 | IRAK-1-4 Inhibitor I 0.032 | ibrutinib -0.019 | [10] -0.053 | ralimetinib -0.035 | [11] -0.056 | [12] 0.001 | [13] -0.038 | pinometostat -0.005 | [14] -0.01 | [15] 0.091

NCALD (UniProt P61601)
inactive: erlotinib 0.117 | [1] 0.04 | [2] -0.007 | [3] -0.023 | [4] 0.028 | [5] 0.02 | [6] -0.001 | [7] 0.075 | [8] 0.045 | [9] 0.078 | IRAK-1-4 Inhibitor I -0.001 | ibrutinib 0.001 | [10] -0.012 | ralimetinib -0.023 | [11] -0.098 | [12] -0.055 | [13] -0.005 | pinometostat 0.055 | [14] -0.047 | [15] -0.04

NDUFV2 (UniProt P19404)
inactive: erlotinib 0.035 | [1] -0.066 | [2] -0.017 | [3] -0.006 | [4] -0.068 | [5] 0.06 | [6] -0.005 | [7] -0.002 | [8] 0.016 | [9] 0.055 | IRAK-1-4 Inhibitor I 0.021 | ibrutinib 0.014 | [10] 0.033 | ralimetinib -0.034 | [11] -0.044 | [12] 0.055 | [13] 0.131 | pinometostat 0.026 | [14] 0.005 | [15] -0.005

MZT2A (UniProt Q6P582)
inactive: erlotinib -0.137 | [1] 0.04 | [2] -0.054 | [3] 0.042 | [4] -0.046 | [5] 0.008 | [6] -0.001 | [7] 0.021 | [8] -0.072 | [9] -0.095 | IRAK-1-4 Inhibitor I 0.008 | ibrutinib 0.057 | [10] -0.048 | ralimetinib -0.096 | [11] -0.107 | [12] 0.038 | [13] 0.154 | pinometostat -0.013 | [14] 0.01 | [15] 0.057

Quoted from the results shown (3 entries):
NAGLU (UniProt P54802)
inactive: erlotinib -0.027 | [1] 0.062 | [2] 0.027 | [3] 0.008 | [4] -0.103 | [5] 0.009 | [6] -0.004 | [7] 0.129 | [8] -0.045 | [9] 0.013 | IRAK-1-4 Inhibitor I 0.066 | ibrutinib 0.055 | [10] 0.121 | ralimetinib 0.001 | [11] 0.114 | [12] -0.012 | [13] -0.054 | pinometostat 0.046 | [14] -0.005 | [15] 0.013

NCS1 (UniProt P62166)
inactive: erlotinib 0.009 | [1] 0.043 | [2] 0.008 | [3] 0.058 | [4] -0.077 | [5] 0.018 | [6] 0.033 | [7] 0.031 | [8] 0.013 | [9] 0.073 | IRAK-1-4 Inhibitor I 0.037 | ibrutinib 0.032 | [10] -0.04 | ralimetinib -0.033 | [11] -0.109 | [12] -0.006 | [13] -0.004 | pinometostat -0.031 | [14] 0.008 | [15] 0.008

NDUFV1 (UniProt P49821)
inactive: erlotinib -0.037 | [1] -0.026 | [2] 0.003 | [3] -0.009 | [4] 0.049 | [5] 0.05 | [6] 0.027 | [7] 0.017 | [8] 0.007 | [9] 0.047 | IRAK-1-4 Inhibitor I 0.025 | ibrutinib 0.005 | [10] 0.001 | ralimetinib -0.042 | [11] -0.124 | [12] 0.001 | [13] -0.001 | pinometostat 0.011 | [14] 0.058 | [15] 0.033

Next entries follow:

NDUFS6 (UniProt O75380)
inactive: erlotinib -0.083 | [1] -0.057 | [2] -0.016 | [3] 0.043 | [4] -0.044 | [5] 0.022 | [6] -0.007 | [7] -0.046 | [8] 0.146 | [9] 0.158 | IRAK-1-4 Inhibitor I 0.026 | ibrutinib 0.02 | [10] 0.082 | ralimetinib -0.027 | [11] -0.052 | [12] 0.069 | [13] 0.242 | pinometostat 0.002 | [14] 0.053 | [15] -0.07

NAT10 (UniProt Q9H0A0)
inactive: erlotinib -0.265 | [1] -0.188 | [2] -0.417 | [3] 0.043 | [4] 0 | [5] 0.029 | [6] 0.012 | [7] 0.01 | [8] 0.076 | [9] -0.061 | IRAK-1-4 Inhibitor I -0.114 | ibrutinib -0.009 | [10] 0.079 | ralimetinib 0.09 | [11] 0 | [12] 0.051 | [13] 0.212 | pinometostat 0.32 | [14] -0.163 | [15] -0.213

NAPRT (UniProt Q6XQN6)
inactive: erlotinib 0.014 | [1] 0.022 | [2] 0.029 | [3] -0.017 | [4] 0.014 | [5] 0.018 | [6] 0.005 | [7] -0.019 | [8] 0.012 | [9] 0.041 | IRAK-1-4 Inhibitor I 0.009 | ibrutinib -0.013 | [10] 0.003 | ralimetinib -0.039 | [11] -0.025 | [12] 0.024 | [13] -0.05 | pinometostat -0.035 | [14] 0.028 | [15] 0.015

NAE1 (UniProt Q13564)
inactive: erlotinib 0.007 | [1] 0.048 | [2] -0.025 | [3] 0.009 | [4] 0.062 | [5] 0.007 | [6] 0.034 | [7] -0.004 | [8] -0.02 | [9] 0.007 | IRAK-1-4 Inhibitor I -0.005 | ibrutinib -0.028 | [10] -0.095 | ralimetinib -0.005 | [11] -0.084 | [12] -0.111 | [13] 0.065 | pinometostat -0.032 | [14] -0.05 | [15] 0.045

N6AMT1 (UniProt Q9Y5N5)
inactive: erlotinib 0.014 | [1] 0.068 | [2] 0.03 | [3] 0.043 | [4] 0.108 | [5] -0.017 | [6] -0.01 | [7] 0.055 | [8] -0.057 | [9] -0.001 | IRAK-1-4 Inhibitor I -0.107 | ibrutinib -0.042 | [10] -0.054 | ralimetinib -0.118 | [11] 0.026 | [12] 0.054 | [13] 0.034 | pinometostat -0.123 | [14] 0.01 | [15] 0.203
